According to PubChem BioAssay AID330 (DTP/NCI, 2004):
The list does not hold the whole screen: it is rich in T/C values a quarter to a half above the control, in often repeated tests (any T/C) and in doses without a T/C. Other doses and runs of a compound stand elsewhere. T/C: endpoint of the treated group in % of that of the vehicle group. Some doses have a count of surviving animals in place of a T/C: the source files T/C as zero there, which appears to mark a toxic dose or a test without result, not a measured value. Some survivor counts are full or nearly so, which does not show that the dose was tolerated: the source hardly ever lists a survival T/C far under the control, and the zero likely stands for such cases as well. Survivors were counted at the toxicity check, usually on the fifth day, unless a day is given; later deaths do not show. Schedule codes are those of the source, taken here to give the interval after Q, in days (D) or hours (H), and the number of doses after X. Some entries hold several experiments; their values stand side by side, smallest first. For survival time, this PubChem deposit counts one and a half times the control or more as active, and values a quarter to a half above the control carry no call in these data; other NCI protocols may use other cut-offs. Some T/C values are followed by the survivors on the day toxicity was checked, most often the fifth; without a count, all were alive then.

System: P388 leukemia ip, CD2F1 mice, survival T/C
Test: NCI In Vivo Anticancer Drug Screen. Data for tumor model P388 Leukemia (intraperitoneal) in CD2F1 (CDF1) mice
Settings: T/C endpoint: median survival time, higher T/C = longer survival
[1] = dose: 120.0 mg/kg/injection, schedule: Q01DX005 (ip), vehicle: saline with Tween-80
[2] = dose: 240.0 mg/kg/injection, schedule: Q01DX005 (ip), vehicle: saline with Tween-80
[3] = dose: 200.0 mg/kg/injection, schedule: Q01DX005 (ip), vehicle: saline with Tween-80
[4] = dose: 60.0 mg/kg/injection, schedule: Q01DX005 (ip), vehicle: saline
[5] = dose: 120.0 mg/kg/injection, schedule: Q01DX005 (ip), vehicle: saline
[6] = dose: 240.0 mg/kg/injection, schedule: Q01DX005 (ip), vehicle: saline
[7] = dose: 200.0 mg/kg/injection, schedule: Q01DX009 (ip), vehicle: Klucel (hydroxypropylcellulose) (HPC)
[8] = dose: 200.0 mg/kg/injection, schedule: Q01DX009 (ip), vehicle: saline
[9] = dose: 50.0 mg/kg/injection, schedule: Q01DX009 (ip), vehicle: saline with Tween-80
[10] = dose: 200.0 mg/kg/injection, schedule: Q01DX009 (ip), vehicle: saline with Tween-80
[11] = dose: 50.0 mg/kg/injection, schedule: Q01DX005 (ip), vehicle: Klucel (hydroxypropylcellulose) (HPC)
[12] = dose: 100.0 mg/kg/injection, schedule: Q01DX005 (ip), vehicle: Klucel (hydroxypropylcellulose) (HPC)
[13] = dose: 200.0 mg/kg/injection, schedule: Q01DX005 (ip), vehicle: Klucel (hydroxypropylcellulose) (HPC)
[14] = dose: 100.0 mg/kg/injection, schedule: Q01DX009 (ip), vehicle: saline with Tween-80
[15] = dose: 100.0 mg/kg/injection, schedule: Q01DX009 (ip), vehicle: Klucel (hydroxypropylcellulose) (HPC)

How did the survivor count [1] turn out when COc1cccc2c1C(=O)c1c(O)c(CCl)cc(OC)c1C2=O was run?
Its survivor count is 5 of 6.

And the survivor count [2]?
The survivor count was 1 of 6.

C1CCN(P2(N3CCCCC3)=NP(N3CCCCC3)(N3CCCCC3)=NP(N3CCCCC3)(N3CCCCC3)=NP(N3CCCCC3)(N3CCCCC3)=N2)CC1 was tested. Which survivor count [3] did it give?
Its survivor count is 6 of 6.

How did the survivor count [3] turn out when Nc1ncnc2nc(N=Nc3c(O)ccc4ccccc34)[nH]c12 was run?
The survivor count was 0 of 5.

Which T/C (dose: 3.0 mg/kg/injection, schedule: Q01DX009 (ip), vehicle: saline with Tween-80) does the source give for CCN(CCP(c1ccccc1)c1ccccc1)CCP(c1ccccc1)c1ccccc1 here?
Its T/C is 136 % of control.

What about the T/C (dose: 6.0 mg/kg/injection, schedule: Q01DX009 (ip), vehicle: saline with Tween-80) of the same compound?
The T/C was 140 % of control.

What about the T/C (dose: 12.0 mg/kg/injection, schedule: Q01DX009 (ip), vehicle: saline with Tween-80) of the same compound?
Its T/C is 136 % of control.

And the T/C (dose: 12.5 mg/kg/injection, schedule: Q04DX003 (ip), vehicle: saline with Tween-80)?
Its T/C is 127 % of control.

What about the T/C (dose: 25.0 mg/kg/injection, schedule: Q04DX003 (ip), vehicle: saline with Tween-80) of the same compound?
Its T/C is 130 % of control.

What about the T/C (dose: 50.0 mg/kg/injection, schedule: Q04DX003 (ip), vehicle: saline with Tween-80) of the same compound?
The T/C was 140 % of control.

And the T/C (dose: 66.0 mg/kg/injection, schedule: Q04DX003 (ip), vehicle: saline with Tween-80)?
Its T/C is 125 % of control [5 of 6 alive].

And the T/C (dose: 100.0 mg/kg/injection, schedule: Q04DX003 (ip), vehicle: saline with Tween-80)?
Its T/C is 130 % of control [5 of 6 alive].

And the survivor count (dose: 150.0 mg/kg/injection, schedule: Q04DX003 (ip), vehicle: saline with Tween-80)?
The survivor count was 4 of 6.

What about the survivor count (dose: 200.0 mg/kg/injection, schedule: Q04DX003 (ip), vehicle: saline with Tween-80) of the same compound?
The survivor count was 4 of 6.

And the survivor count (dose: 400.0 mg/kg/injection, schedule: Q04DX003 (ip), vehicle: saline with Tween-80)?
Its survivor count is 1 of 6.

With C/C(=N\NC(=S)Nc1ccc(C(=O)O)cc1C)c1ccccn1 as the compound, how does the survivor count [3] read?
The survivor count was 1 of 6.

Which survivor count (dose: 15.0 mg/kg/injection, schedule: Q01DX005 (ip), vehicle: saline) does the source give for C[N+]1(C)CCN(Cc2ccc3c(c2)CCc2ccccc2N3)CC1 here?
The survivor count was 0 of 6.

And the survivor count [4]?
The survivor count was 0 of 6.

And the survivor count [5]?
The survivor count was 0 of 6.

What about the survivor count [6] of the same compound?
Its survivor count is 0 of 6.

Which survivor count [7] does the source give for O=P(O)(O)SP(=O)(O)O.[Co] here?
The survivor count was 0 of 6.

With CC(CN(C)C)C(=O)c1ccccc1 (stereo not drawn) as the compound, how does the survivor count [8] read?
The survivor count was 1 of 6.

Which results are given for Nc1ccccc1C(=O)Nc1ccccc1?
survivor count [9]: 6 of 6; survivor count [10]: 6 of 6

How did the survivor count [7] turn out when CN(C)CCC(=O)c1ccc(Cl)c(Cl)c1 was run?
Its survivor count is 1 of 6.

Which survivor count (dose: 400.0 mg/kg/injection, schedule: Q01DX009 (ip), vehicle: saline with Tween-80) does the source give for NC(Cc1cc(I)c(O)c(I)c1)C(=O)O (stereo not drawn) here?
The survivor count was 6 of 6.

How did the T/C (dose: 0.78 mg/kg/injection, schedule: Q01DX009 (ip), vehicle: water) turn out when COc1cccc2c1C(=O)c1c(O)c3c(c(O)c1C2=O)CC(O)(/C(C)=N/NC(=O)C(=O)N/N=C(\C)C1(O)Cc2c(O)c4c(c(O)c2C(OC2CC(N)C(O)C(C)O2)C1)C(=O)c1c(OC)cccc1C4=O)CC3OC1CC(N)C(O)C(C)O1 (stereo not drawn) was run?
The T/C was 139 and 144 % of control.

And the survivor count (dose: 25.0 mg/kg/injection, schedule: Q01DX009 (ip), vehicle: water)?
Its survivor count is 3 of 3.

Which survivor count (dose: 12.5 mg/kg/injection, schedule: Q01DX009 (ip), vehicle: Klucel (hydroxypropylcellulose) (HPC)) does the source give for C=C(C)C1CC2(C)C(C)CC(O)CC2C(OC(=O)C=C(C)C)C1O (stereo not drawn) here?
The survivor count was 6 of 6.

NCCNCCN1C(=O)c2cccc3cccc(c23)C1=O was tested. Which survivor count (dose: 400.0 mg/kg/injection, schedule: Q01DX001 (ip), vehicle: saline) did it give?
Its survivor count is 0 of 6.

With O=c1c2ccccc2sc2c1c(N(CCO)CCO)cc1ccccc12 as the compound, how does the survivor count (dose: 200.0 mg/kg/injection, schedule: Q01DX005 (ip), vehicle: distilled water + Tween-80) read?
Its survivor count is 3 of 6.

For CN1COc2ccc3ccccc3c2C1, which survivor count [8] is on record?
Its survivor count is 0 of 6.

With CCCCCCCCCC(=O)c1ccc(O)c(O)c1O as the compound, how does the survivor count (dose: 400.0 mg/kg/injection, schedule: Q01DX009 (ip), vehicle: saline) read?
Its survivor count is 2 of 6.

And the survivor count (dose: 600.0 mg/kg/injection, schedule: Q01DX009 (ip), vehicle: saline)?
The survivor count was 0 of 6.

Which survivor count [11] does the source give for Cc1cccc(-n2c(C)nc3c(c(C)c(C)n3-c3ccccc3)c2=N)c1 here?
Its survivor count is 2 of 6.

And the survivor count [12]?
Its survivor count is 0 of 6.

And the survivor count [13]?
The survivor count was 0 of 6.

With COC(=Nc1ccccc1)SSC(C)C as the compound, how does the T/C [9] read?
Its T/C is 133 % of control.

And the T/C [14]?
The T/C was 146 % of control.

And the survivor count [14]?
Its survivor count is 5 of 6.

And the survivor count [10]?
Its survivor count is 1 of 6 and 3 of 6.

How did the survivor count (dose: 12.5 mg/kg/injection, schedule: Q01DX001 (ip), vehicle: saline with Tween-80) turn out when CC(C#N)(S(C)(=O)=O)S(=O)(=O)c1ccccc1 (stereo not drawn) was run?
The survivor count was 1 of 6 and 2 of 6.

What about the survivor count (dose: 25.0 mg/kg/injection, schedule: Q01DX001 (ip), vehicle: saline with Tween-80) of the same compound?
The survivor count was 0 of 6.

What about the survivor count (dose: 50.0 mg/kg/injection, schedule: Q01DX001 (ip), vehicle: saline with Tween-80) of the same compound?
Its survivor count is 0 of 6.

What about the survivor count (dose: 50.0 mg/kg/injection, schedule: Q01DX005 (ip), vehicle: saline with Tween-80) of the same compound?
The survivor count was 0 of 6.

What about the survivor count (dose: 100.0 mg/kg/injection, schedule: Q01DX005 (ip), vehicle: saline with Tween-80) of the same compound?
Its survivor count is 0 of 6.

What about the survivor count [3] of the same compound?
The survivor count was 0 of 6.

With NNC(=O)CCCCl as the compound, how does the survivor count [6] read?
The survivor count was 2 of 6.

Which survivor count [1] does the source give for Cc1nnc2c3nccnc3c(Cl)nn12 here?
The survivor count was 4 of 6.

What about the survivor count [2] of the same compound?
The survivor count was 0 of 6.

Which survivor count (dose: 100.0 mg/kg/injection, schedule: Q04DX003 (ip), vehicle: DMSO) does the source give for CCN(CC)c1ccc2c(C)cc(=O)oc2c1 here?
Its survivor count is 5 of 6.

And the survivor count (dose: 200.0 mg/kg/injection, schedule: Q04DX003 (ip), vehicle: DMSO)?
The survivor count was 0 of 6.

Which survivor count (dose: 25.0 mg/kg/injection, schedule: Q01DX009 (ip), vehicle: saline with Tween-80) does the source give for O=C(CBr)c1cccc(OC(=O)c2ccccc2)c1 here?
The survivor count was 3 of 6.

How did the survivor count [13] turn out when CC1CC(=O)c2cc3oc(=O)n(C)c3cc21 (stereo not drawn) was run?
Its survivor count is 6 of 6.

What does the source list for CC(=O)OC(C(=O)N1CC1)C(OC(C)=O)C(OC(C)=O)C(OC(C)=O)C(=O)N1CC1 (stereo not drawn)?
survivor count [15]: 3 of 6; survivor count [7]: 1 of 6

Which T/C (dose: 3.12 mg/kg/injection, schedule: Q01DX005 (ip), vehicle: Klucel (hydroxypropylcellulose) (HPC)) does the source give for COc1ccc2c(Cc3ccccc3)c3[n+](cc2c1OC)CCc1cc2c(cc1-3)OCO2 here?
The T/C was 128 % of control.

And the T/C (dose: 6.25 mg/kg/injection, schedule: Q01DX005 (ip), vehicle: Klucel (hydroxypropylcellulose) (HPC))?
The T/C was 133 % of control.

What about the survivor count (dose: 12.5 mg/kg/injection, schedule: Q01DX005 (ip), vehicle: Klucel (hydroxypropylcellulose) (HPC)) of the same compound?
Its survivor count is 5 of 5.

What about the survivor count (dose: 25.0 mg/kg/injection, schedule: Q01DX005 (ip), vehicle: Klucel (hydroxypropylcellulose) (HPC)) of the same compound?
Its survivor count is 0 of 5.

What about the survivor count [11] of the same compound?
Its survivor count is 0 of 6.

What about the survivor count [12] of the same compound?
The survivor count was 0 of 6.

What about the survivor count [13] of the same compound?
The survivor count was 0 of 6.

How did the survivor count (dose: 100.0 mg/kg/injection, schedule: Q01DX001 (ip), vehicle: saline with Tween-80) turn out when C=C(C#N)C(NC(C)(C)C)c1ccccc1 (stereo not drawn) was run?
The survivor count was 3 of 6.

What about the survivor count (dose: 200.0 mg/kg/injection, schedule: Q01DX001 (ip), vehicle: saline with Tween-80) of the same compound?
The survivor count was 0 of 6.

And the survivor count (dose: 400.0 mg/kg/injection, schedule: Q01DX001 (ip), vehicle: saline with Tween-80)?
The survivor count was 0 of 6.

How did the survivor count [2] turn out when CCc1cccc(CC)c1NC(=O)c1ccc(C)cc1 was run?
The survivor count was 6 of 6.

Which results are given for CCOC(=O)c1cnc(Sc2c([N+](=O)[O-])ncn2C)nc1N?
survivor count [15]: 6 of 6; survivor count [7]: 6 of 6

Which results are given for CN(C)CC(CN(C)C)C(=O)c1ccc2c(c1)OCO2?
survivor count [4]: 3 of 6; survivor count [5]: 0 of 6; survivor count [6]: 0 of 6

How did the survivor count (dose: 400.0 mg/kg/injection, schedule: Q04DX002 (ip), vehicle: saline) turn out when CNCC(=O)Nc1ccc(C2NC(=O)Cc3ccccc32)cc1 (stereo not drawn) was run?
The survivor count was 1 of 6.
